Measured values taken from PubChem BioAssay AID248 (DTP/NCI, 2004).
The list does not hold the whole screen: it is rich in T/C values a quarter to a half above the control, in often repeated tests (any T/C) and in doses without a T/C. Other doses and runs of a compound stand elsewhere. T/C: endpoint of the treated group in % of that of the vehicle group. Some doses have a count of surviving animals in place of a T/C: the source files T/C as zero there, which appears to mark a toxic dose or a test without result, not a measured value. Some doses without a T/C left all or most animals alive at the check, yet need not have been tolerated: survival well below the control is almost never listed, so the zero probably covers shortened survival too. Counts of survivors are from the toxicity check (mostly the fifth day) where no day follows; animals may have died later. Schedule codes are those of the source, read here as Q, the interval in days (D) or hours (H), X, the number of doses. Some entries were tested several times; the results are listed from low to high. Some molecules as drawn cover several salts, stereoisomers or complexes of the source; a dose is that of the sample tested. Signs of the kind (2×) say how often a value occurs here. Where survival is the endpoint, this PubChem deposit counts one and a half times the control or more as active, and values a quarter to a half above the control carry no call in these data; other NCI protocols may use other cut-offs. Some T/C values carry the count of animals alive at the toxicity check (mostly the fifth day); where none is given, no animal had died by that day.

Test system: L1210 leukemia ip in BDF1 mice, survival T/C
Assay: NCI In Vivo Anticancer Drug Screen. Data for tumor model L1210 Leukemia (intraperitoneal) in B6D2F1 (BDF1) mice
Details: T/C endpoint: mean survival time, higher T/C = longer survival
[1] = dose: 400.0 mg/kg/injection, schedule: Q01DX001 (ip), vehicle: saline
[2] = dose: 400.0 mg/kg/injection, schedule: Q04DX003 (ip), vehicle: saline
[3] = dose: 400.0 mg/kg/injection, schedule: Q01DX001 (ip), vehicle: Klucel (hydroxypropylcellulose) (HPC)
[4] = dose: 400.0 mg/kg/injection, schedule: Q01DX009 (ip), vehicle: Klucel (hydroxypropylcellulose) (HPC)
[5] = dose: 400.0 mg/kg/injection, schedule: Q04DX003 (ip), vehicle: Klucel (hydroxypropylcellulose) (HPC)
[6] = dose: 100.0 mg/kg/injection, schedule: Q01DX001 (ip), vehicle: carboxymethylcellulose (CMC)
[7] = dose: 200.0 mg/kg/injection, schedule: Q01DX001 (ip), vehicle: carboxymethylcellulose (CMC)
[8] = dose: 400.0 mg/kg/injection, schedule: Q01DX001 (ip), vehicle: carboxymethylcellulose (CMC)

## C[N+](C)(C)Cc1ccccc1
dose: 25.0 mg/kg/injection, schedule: Q01DX009 (ip), vehicle: saline
  survivor count: 4 of 6
dose: 40.0 mg/kg/injection, schedule: Q01DX001 (ip), vehicle: saline
  survivor count: 0 of 4 and 2 of 6
dose: 50.0 mg/kg/injection, schedule: Q01DX001 (ip), vehicle: saline
  survivor count: 0 of 4
dose: 50.0 mg/kg/injection, schedule: Q01DX009 (ip), vehicle: saline
  survivor count: 0 of 3
dose: 50.0 mg/kg/injection, schedule: Q04DX003 (ip), vehicle: saline
  survivor count: 0 of 6
dose: 75.0 mg/kg/injection, schedule: Q01DX001 (ip), vehicle: saline
  survivor count: 0 of 6
dose: 80.0 mg/kg/injection, schedule: Q01DX001 (ip), vehicle: saline
  survivor count: 0 of 4
dose: 100.0 mg/kg/injection, schedule: Q01DX001 (ip), vehicle: saline
  survivor count: 0 of 4
dose: 100.0 mg/kg/injection, schedule: Q01DX009 (ip), vehicle: saline
  survivor count: 0 of 3, 0 of 6, 5 of 6
dose: 100.0 mg/kg/injection, schedule: Q04DX003 (ip), vehicle: saline
  survivor count: 0 of 6
dose: 150.0 mg/kg/injection, schedule: Q01DX001 (ip), vehicle: saline
  survivor count: 0 of 6
dose: 200.0 mg/kg/injection, schedule: Q01DX001 (ip), vehicle: saline
  survivor count: 0 of 4
dose: 200.0 mg/kg/injection, schedule: Q01DX009 (ip), vehicle: saline
  survivor count: 0 of 6 (2×)
dose: 200.0 mg/kg/injection, schedule: Q04DX003 (ip), vehicle: saline
  survivor count: 0 of 6
dose: 300.0 mg/kg/injection, schedule: Q01DX001 (ip), vehicle: saline
  survivor count: 0 of 6
[1]
  survivor count: 0 of 4
dose: 400.0 mg/kg/injection, schedule: Q01DX009 (ip), vehicle: saline
  survivor count: 0 of 6 (2×)
[2]
  survivor count: 0 of 6

## O=C(O)c1cccc(I)c1.[Ni]
dose: 100.0 mg/kg/injection, schedule: Q04DX002 (ip), vehicle: gum acacia
  survivor count: 2 of 3
dose: 200.0 mg/kg/injection, schedule: Q04DX002 (ip), vehicle: gum acacia
  survivor count: 2 of 3
dose: 400.0 mg/kg/injection, schedule: Q04DX002 (ip), vehicle: gum acacia
  survivor count: 0 of 3

## COc1cc(CC2C(O)C3CCN2CC3)cc(OC)c1OC (stereo unspecified)
dose: 200.0 mg/kg/injection, schedule: Q04DX002 (ip), vehicle: saline
  survivor count: 1 of 3
dose: 400.0 mg/kg/injection, schedule: Q04DX002 (ip), vehicle: saline
  survivor count: 0 of 3

## N#CC(CC(=O)O)=C(c1ccccc1)c1ccccc1
[3]
  survivor count: 2 of 6
[4]
  survivor count: 0 of 3 and 3 of 6
dose: 400.0 mg/kg/injection, schedule: Q04DX002 (ip), vehicle: Klucel (hydroxypropylcellulose) (HPC)
  survivor count: 2 of 3 and 6 of 6
[5]
  survivor count: 0 of 6

## O=C1C(F)=C(N2CC2)C(=O)C(N2CCOCC2)=C1N1CC1
dose: 6.0 mg/kg/injection, schedule: Q01DX009 (ip), vehicle: saline
  T/C: 129 % of control
dose: 12.5 mg/kg/injection, schedule: Q04DX003 (ip), vehicle: saline
  survivor count: 1 of 6 and 3 of 6
dose: 25.0 mg/kg/injection, schedule: Q01DX001 (ip), vehicle: saline
  survivor count: 1 of 6
dose: 25.0 mg/kg/injection, schedule: Q04DX003 (ip), vehicle: saline
  survivor count: 0 of 6

## NC(=S)NN=C1CCCCCCCCCCCCCC1
dose: 50.0 mg/kg/injection, schedule: Q01DX001 (ip), vehicle: carboxymethylcellulose (CMC)
  survivor count: 4 of 4
[6]
  survivor count: 4 of 4
[7]
  survivor count: 4 of 4
[8]
  survivor count: 4 of 4

## O=[N+]([O-])c1cccc(S(=O)(=O)O)c1.[Fe]
[2]
  survivor count: 0 of 6

## CC(C)C1CCC(NC(=O)N(CCF)N=O)CC1 (stereo unspecified)
dose: 8.0 mg/kg/injection, schedule: Q01DX001 (ip), vehicle: other
  T/C: 125 % of control
dose: 16.0 mg/kg/injection, schedule: Q01DX001 (ip), vehicle: other
  T/C: 134 % of control
dose: 19.0 mg/kg/injection, schedule: Q01DX001 (ip), vehicle: other
  T/C: 131 % of control
dose: 93.0 mg/kg/injection, schedule: Q01DX001 (ip), vehicle: other
  survivor count: 5 of 10
dose: 125.0 mg/kg/injection, schedule: Q01DX001 (ip), vehicle: other
  survivor count: 4 of 10
dose: 250.0 mg/kg/injection, schedule: Q01DX001 (ip), vehicle: other
  survivor count: 3 of 10

## CCCNC(=O)Sc1ccc(C(C)(C)C)cc1
dose: 200.0 mg/kg/injection, schedule: Q01DX009 (ip), vehicle: Klucel (hydroxypropylcellulose) (HPC)
  survivor count: 3 of 3
[4]
  survivor count: 0 of 3

## Cc1ccc(S(=O)(=O)N/N=C2\CC3(Cl)CCC2C3)cc1 (stereo unspecified)
dose: 400.0 mg/kg/injection, schedule: Q01DX009 (ip), vehicle: saline with Tween-80
  survivor count: 6 of 6

## Cc1ccc(NC(=O)N(CCCl)N=O)cc1Cl
dose: 2.0 mg/kg/injection, schedule: Q01DX009 (ip), vehicle: carboxymethylcellulose (CMC)
  T/C: 138 % of control
dose: 4.0 mg/kg/injection, schedule: Q01DX009 (ip), vehicle: carboxymethylcellulose (CMC)
  T/C: 141 and 141 % of control [5 of 6 alive]
dose: 6.0 mg/kg/injection, schedule: Q01DX009 (ip), vehicle: carboxymethylcellulose (CMC)
  T/C: 132 % of control
dose: 8.0 mg/kg/injection, schedule: Q01DX001 (ip), vehicle: carboxymethylcellulose (CMC)
  T/C: 125 % of control
dose: 9.0 mg/kg/injection, schedule: Q01DX009 (ip), vehicle: carboxymethylcellulose (CMC)
  T/C: 143 % of control
dose: 14.0 mg/kg/injection, schedule: Q01DX009 (ip), vehicle: carboxymethylcellulose (CMC)
  T/C: 137 % of control [4 of 6 alive]
dose: 20.0 mg/kg/injection, schedule: Q01DX001 (ip), vehicle: carboxymethylcellulose (CMC)
  T/C: 132 % of control
dose: 20.0 mg/kg/injection, schedule: Q01DX007 (ip), vehicle: carboxymethylcellulose (CMC)
  T/C: 141 % of control
dose: 22.0 mg/kg/injection, schedule: Q01DX009 (ip), vehicle: carboxymethylcellulose (CMC)
  T/C: 140 % of control [5 of 6 alive]
dose: 30.0 mg/kg/injection, schedule: Q01DX001 (ip), vehicle: carboxymethylcellulose (CMC)
  T/C: 127 % of control
dose: 50.0 mg/kg/injection, schedule: Q01DX009 (ip), vehicle: carboxymethylcellulose (CMC)
  survivor count: 2 of 6
dose: 66.0 mg/kg/injection, schedule: Q01DX001 (ip), vehicle: other
  survivor count: 4 of 6
[6]
  T/C: 128 % of control
dose: 100.0 mg/kg/injection, schedule: Q01DX001 (ip), vehicle: other
  survivor count: 0 of 6
[7]
  survivor count: 2 of 4
[8]
  survivor count: 0 of 4

## S=C(S)Nc1ccccc1
dose: 200.0 mg/kg/injection, schedule: Q01DX001 (ip), vehicle: Klucel (hydroxypropylcellulose) (HPC)
  survivor count: 2 of 6
[3]
  survivor count: 0 of 6

## Cc1cc(N(CCOS(C)(=O)=O)CCOS(C)(=O)=O)ccc1C=Nc1ccc(-c2csc(-c3ccccc3)n2)c(Cl)c1
dose: 26.6 mg/kg/injection, schedule: Q04DX003 (ip), vehicle: Klucel (hydroxypropylcellulose) (HPC)
  T/C: 125 % of control
dose: 40.0 mg/kg/injection, schedule: Q04DX003 (ip), vehicle: Klucel (hydroxypropylcellulose) (HPC)
  T/C: 127 and 136 % of control
dose: 200.0 mg/kg/injection, schedule: Q04DX003 (ip), vehicle: Klucel (hydroxypropylcellulose) (HPC)
  survivor count: 6 of 6
[5]
  survivor count: 6 of 6

## N#CC(C#N)c1ccc(C(C#N)C#N)cc1
[1]
  survivor count: 0 of 4

## [Cl][Pd][Cl].[NH-]C1CCCC1.[NH-]C1CCCC1
dose: 100.0 mg/kg/injection, schedule: Q04DX002 (ip), vehicle: saline with Tween-80
  survivor count: 0 of 3
dose: 200.0 mg/kg/injection, schedule: Q04DX002 (ip), vehicle: saline with Tween-80
  survivor count: 1 of 3
dose: 400.0 mg/kg/injection, schedule: Q04DX002 (ip), vehicle: saline with Tween-80
  survivor count: 0 of 3
